Values from PubChem BioAssay AID1259254 (NCATS, 2017)
Aim: 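Gene knock-downs that lead to re-replication, shown by excess G2 DNA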 (primary screen). Cells: human HCT116 colorectal cancer cells. Knock-down reagent: single siRNA against human genes. Timing: 3 days. Measurement: 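Imaged Hoechst DNA stain sorts each cell into a cycle phase by DNA amount; per plate, G2 fraction set to 0% for non-targeting and 100% for GMNN siRNA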. Direction: G2 robust z-score and G2 cells, % of GMNN control: higher = more G2 cells, more excess DNA replication. Active means: 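An siRNA counts as active if its G2 robust z-score lies at least 5 MADs above the screen median; here such calls match roughly 38% of GMNN control or more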.
The whole screen tested about 59,000 reagents; this is a part drawn at random. About 1,550 of them (2.6%) were called active. 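G2 share is only a proxy for re-replication; each gene was hit by three separate siRNAs, and active genes were retested.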 Unmarked entries are inactive. Reagents against one gene are numbered here. Not all columns of the deposit are shown. The record does not give: the amount of reagent.

How did the screen score ZNF652 #1?
G2 robust z-score: -0.409; G2 cells, % of GMNN control: 0.0864

With ZNF652 #2, what was measured?
G2 robust z-score: -0.797; G2 cells, % of GMNN control: -2.64

How did the screen score ZNF652 #3?
G2 robust z-score: 2.82; G2 cells, % of GMNN control: 22.8

Which result is listed for H1-10 #1?
G2 robust z-score: 0.0298; G2 cells, % of GMNN control: 3.18

With H1-10 #2, how do the results read?
G2 robust z-score: 0.0851; G2 cells, % of GMNN control: 3.57

What did the screen give for H1-10 #3?
G2 robust z-score: -0.791; G2 cells, % of GMNN control: -2.59

With E2F7 #1, how do the results read?
G2 robust z-score: 0.143; G2 cells, % of GMNN control: 3.97

With E2F7 #2, what was measured?
G2 robust z-score: 0.329; G2 cells, % of GMNN control: 5.29

What did the screen give for E2F7 #3?
G2 robust z-score: 0.0211; G2 cells, % of GMNN control: 3.12

With KRT15 #1, how do the results read?
G2 robust z-score: 1.76; G2 cells, % of GMNN control: 15.4

For KRT15 #2, what does the deposit list?
G2 robust z-score: -1.43; G2 cells, % of GMNN control: -7.1

What did the screen give for KRT15 #3?
G2 robust z-score: 0.474; G2 cells, % of GMNN control: 6.3

With PRDX4 #1, what does the deposit list?
G2 robust z-score: 2.2; G2 cells, % of GMNN control: 18.4

For PRDX4 #2, what was measured?
G2 robust z-score: -0.55; G2 cells, % of GMNN control: -0.903

For PRDX4 #3, what does the deposit list?
G2 robust z-score: 2.28; G2 cells, % of GMNN control: 19

Which result is listed for KIF5B #1?
G2 robust z-score: -0.616; G2 cells, % of GMNN control: -1.37

With KIF5B #2, what does the deposit list?
G2 robust z-score: 0.808; G2 cells, % of GMNN control: 8.65

With KIF5B #3, what was measured?
G2 robust z-score: 0.571; G2 cells, % of GMNN control: 6.99

Which result is listed for CD83 #1?
G2 robust z-score: 0.522; G2 cells, % of GMNN control: 6.64

How did the screen score CD83 #2?
G2 robust z-score: 5.67 (active); G2 cells, % of GMNN control: 42.9

With CD83 #3, what was measured?
G2 robust z-score: 5.26 (active); G2 cells, % of GMNN control: 40

For KLF2 #1, what was measured?
G2 robust z-score: 1.13; G2 cells, % of GMNN control: 10.9

How did the screen score KLF2 #2?
G2 robust z-score: -1.2; G2 cells, % of GMNN control: -5.5

With KLF2 #3, how do the results read?
G2 robust z-score: 0.329; G2 cells, % of GMNN control: 5.28

Reformatted: 3 of the entries above
gene,reagent,G2 robust z-score,"G2 cells, % of GMNN control"
KRT15,3,0.474,6.3
PRDX4,1,2.2,18.4
PRDX4,2,-0.55,-0.903
